# Test results: PubChem BioAssay AID1508600 (Functional Genomics Laboratory (NCATS/FGL), 2020)
# The campaign covered roughly 53,000 sequences. About 3,700 (7%) were called active.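 How the source made its calls: active means gene knockdowns whose robust z-score for IL-1 alpha signal is at least 2 or at most -2, so actives lie on both sides; inactive means the rest.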 This is one part of the list.
# Assay: Components of the Cytosolic LPS Sensing Pathway: Gene Identification via Genome-wide siRNA Screen;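 further: robust z of the log signal after scaling to non-targeting control siRNA wells of the plate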
# Conditions: RAW264.7 macrophages, IL-1a HTRF, actives lie on both sides, screened at 100 nM (by protocol), cells primed 5 h with Pam3CSK4 first
# Outline: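 RAW264.7; siRNA 100 nM final, RNAiMAX, 48h 37 degrees C; Pam3CSK4 5 h; LipidA + TransIT-TKO 24 h; IL-1a HTRF; CellTiter-Glo viability; robust z vs negative-control median.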
row,Sequence,z-score
1,GCGAACCAUUCCACUCUUUTT against Hpgd,inactive: 0.212
2,UAUUGUUCACUGCACUGUATT against Lefty1,inactive: 0.608
3,GGAAUUCAGUGAAUGUCAUTT against Gapvd1,active: -2.28
4,GGUGUUCUUAAUGAGAUUCTT against Gdf5,inactive: 0.707
5,GGUGGAACAACUGUUUCAATT against Dyrk3,inactive: 0.541
6,AUGAAGUCGUUGUUCUCAUTT against Olfr918,inactive: -0.235
7,GGAGCUAGAGUUUUCACUATT against Chtop,inactive: 1.73
8,GCCUUAGAGCACAUUCAGATT against Rnf6,inactive: -0.608
9,GGCAUCUGACGAUAAUGAUTT against Lman2l,inactive: -0.337
10,GGAGGUACCUAUUGAGAUCTT against Acot8,inactive: -1.48
11,GGAUCUCUCCUUGAGGAGATT against Glp2r,inactive: -0.268
12,GGGACUUCCUUAUUGGAACTT against A830019P07Rik,inactive: 1.23
13,GGUUUGAUCCUCCACAUUCTT against Nucks1,inactive: -0.381
14,GGUGAGCACCUUCAAGUCUTT against Gpc2,inactive: 0.749
15,CGUAUUAUGUCUGGUUUGUTT against Slc35a1,inactive: -0.0557
16,GGAAACCUAUGUCUCAAGATT against Mrps36,inactive: -0.332
17,GGGUGUUUUCAUUAACACATT against Setdb1,inactive: 1.14
18,GAAUGAGGAUCUACGAAAATT against Crygb,inactive: 1.39
19,GGGUACCUCAUAAAGCAUATT against Dock2,inactive: 0.0787
20,GGCCAUUAACUUAAGUUUGTT against Dynlt3,inactive: 0.76
21,GGUGUCCACAUUAAAUUACTT against Foxb1,active: 2.21
22,GGCAGUUCCUGGAUUACCUTT against Il5,inactive: -1.37

row,Sequence,z-score
1,GGCUGUGAAGAACUGGCAGTT against Rnaseh2a,inactive: 1.85
2,GCAUCAAAAAAAAUUCGUGTT against Dpysl2,inactive: -0.137
3,GCGAGUAAUUUCGUUUCCCTT against Hoxd3,inactive: 0.528
4,GGCUAAUCCACUCUGAGUATT against Wasl,inactive: 0.636
5,GGACUAUGAAAUUGACUGUTT against Hdlbp,inactive: 0.25
6,GCUGGGCAUUACCCAUGUUTT against Dusp13,inactive: 0.649
7,GGUUGUCAUUCUUAUCCUUTT against Mageb1,inactive: 0.57
8,CCAGCUAUUGGAAGUAAAATT against Nbn,inactive: -1.05
9,CCUCACCUAUGGUACUUUCTT against Trcg1,inactive: -1.43
10,GGGAUGAGACACGAAACCUTT against Itga2b,inactive: -1.35
11,GCACAUGUAUCCAUGCUUCTT against Kcnj11,inactive: -0.815
12,GGACAGGAUCAGAGAAAGATT against Zbtb7c,active: -2.15
13,GCUGAGGGAUAUCUCAGCCTT against Edn2,inactive: 1.07
14,GGUAACUUCUCUUCUGAGATT against H2-Oa,inactive: 0.269
15,GGCAGGACACCAUAUGGUUTT against Tedc1,active: -2.16
16,GCUUACUCUGUGGAUCCAGTT against Gm5420,inactive: -0.524
17,GGAAGGUGGCUAUUUUAAUTT against Acsl3,inactive: -0.207
18,GGUGAUUAGCAAUCAUCAGTT against Zfp942,inactive: -0.295
19,CCGGUUCGUUCAGAAGGAGTT against Tmem163,inactive: -0.731
20,GCACGAUCUUCCAAACCCUTT against Dhh,inactive: -1.25
21,GCUGCACCAUCAAUUCCCATT against Vpreb3,inactive: -1.63
22,GGGCGUGAUUUAUUUCUACTT against Mfsd6l,inactive: 1.45

# Looked up one by one from the entries so far (five):
row,Sequence,z-score
18,GGUGAUUAGCAAUCAUCAGTT against Zfp942,inactive: -0.295
14,GGUAACUUCUCUUCUGAGATT against H2-Oa,inactive: 0.269
13,GCUGAGGGAUAUCUCAGCCTT against Edn2,inactive: 1.07
1,GGCUGUGAAGAACUGGCAGTT against Rnaseh2a,inactive: 1.85
21,GCUGCACCAUCAAUUCCCATT against Vpreb3,inactive: -1.63

# The list goes on:

row,Sequence,z-score
1,GGCGGAAAAAGGAUUUCAATT against Zfp595,inactive: 1.84
2,GGAGCAUCCUUCAACUUCUTT against Fcrl1,inactive: 1.74
3,GCAAAUCGACCACUUUCCGTT against Cacng2,active: 4
4,CGAUUUCCUUGGCACCAAUTT against Arhgap1,inactive: -0.675
5,GCACAAGUCAAGAGCUACCTT against Cdk20,inactive: 0.639
6,GGGUGACACUCUGAACGUATT against Arap1,inactive: -0.952
7,GCAACUACGUGUUCGUGUUTT against Rabac1,inactive: 1.56
8,GCUAUACGUGGUUUCCUCCTT against Adgrf1,inactive: -0.98
9,GCGAAUCUCCACAAGAUGGTT against 2300002M23Rik,inactive: -0.0187
10,GGACGACUUCUACCUCAACTT against Fzr1,inactive: 0.696
11,CCUGAAAACACGUAUUGAATT against Igfbp4,inactive: -1.01
12,CCUGGAGAUUAGCUACGCCTT against Nostrin,inactive: -1.57
13,GGAAGGUACCUACUCACUATT against Gm2a,inactive: 0.0412
14,GCCGCCAUGACAGUAAAAGTT against Srsf4,inactive: -1.07
15,GGAAGAUGAAAGUUCCAUATT against Ankar,inactive: 1.17
16,GCUGGACUAAUCGACAGCATT against Inava,inactive: -1.4
17,GGUUCAAAAGUCGAGCGAATT against Nudt9,inactive: -0.137
18,GGCAUGAACCAUUCAGUAATT against Ifnar1,inactive: 0.677
19,GGAGAUCUCAGAGAGUGAGTT against Atn1,active: -2.52
20,GGUUACUGGGUGAUAAGAATT against Mipep,inactive: -0.542
21,GGCAGUGUACAUCUGGAUATT against Olfr611,inactive: 1.85
22,GGUGUUCUUGAAGUUUAUATT against Zfp157,inactive: 0.579

row,Sequence,z-score
1,GCCUUUUGAUGCUUCCUCUTT against Rusf1,inactive: -0.696
2,GGUGAUCUUUUCUUUCUUUTT against Mkx,inactive: 0.986
3,GCACAAUACUGUGAUCGAATT against Usp24,inactive: -0.881
4,GGGAAAGGUGUUCCAGUUATT against Chchd7,inactive: -0.52
5,CCACAAUCUGUUAACUUUGTT against Serpinb10,inactive: -0.303
6,GGCUGAUUUUCAGCUAAACTT against Yipf6,inactive: 1.48
7,GGACUGCACAGUUAUGGUGTT against Coro1a,inactive: -0.423
8,GGCUACUUUCUGAAUUUUCTT against Ror2,inactive: 0.0204
9,GCUCUCCUUGCACUUUACATT against Syt4,inactive: -0.461
10,GGGUUCUUGGACAAACAGGTT against Eps15l1,inactive: 0.347
11,GGAUUUUGUUGACAAUGAUTT against Ncaph,inactive: -0.0936
12,GGAGGAGGGAUCACAAGAATT against Mrpl23,inactive: 0.376
13,GGGACCUUUUCAGGACCUUTT against Ucp2,inactive: -0.954
14,GGAACUCAUUCUAUUGCACTT against Sowahd,inactive: 0.711
15,GGCGGAUUCAGUCAGCUUUTT against Trim47,inactive: 0.501
16,GGAUCAAUGCACCUUCCAATT against Gpr85,inactive: 1.61
17,GUAUGCUGUGAGCCUUGUCTT against Sprr2b,inactive: -0.591
18,GGAUGUAAAAGAGACUGUGTT against Olfr1176,inactive: -1.78
19,GCGGCUUAAAGACCUGUUGTT against Sdhc,inactive: -0.571
20,GGUAAUCCGAGCCAACAUUTT against Gpt2,inactive: -0.177
21,CCCACUGGUUAUAAAUGAATT against Cpped1,inactive: 0.561
22,CCCUUUCGUUCUUUACUUUTT against Olfr506,inactive: -0.16

row,Sequence,z-score
1,CCUGAAGUUUGACUGUUUATT against Adam30,inactive: 0.135
2,GGAGGGAAUGAAAAGUCAATT against Stard7,active: 2.09
3,GGCAAUGGCACUGAAGUCATT against Olfr994,inactive: -0.0376
4,CGAAUCCAUGAUAUUGUACTT against Dynlrb2,inactive: 0.0744
5,CCAGAUGUGAUCUUAAAACTT against Zfp334,inactive: -0.254
6,GCCAGUCAGAUGUACAGUCTT against Pbx1,active: 3.28
7,CCUCAAGUUUGCCAUCAGGTT against Hps4,inactive: 0.399
8,GCUGGUUAAGUCCUAUCACTT against Klrk1,inactive: 0.362
9,GUAUUUCCACUUCAUUGUGTT against Dolk,inactive: -1.15
10,GGCCUACCUAUAGAAAUGATT against Pgap1,inactive: 0.208
11,GCUCCUAUGGCAACAUCGUTT against Olfr303,active: 2.11
12,CCCGGGUCAUCAUUUUAAUTT against B830017H08Rik,inactive: -0.342
13,CCACUGCUGUUAGGCUUGATT against Olfr810,inactive: 0.694
14,GGCAAGAGUGAAUUUAAGATT against Nt5e,inactive: -0.292
15,GGAAAGAUUCCGAACAAUUTT against Rab8b,active: 2.12
16,GCAUCAUCGAAUAAUCAUCTT against Egf,inactive: 0.213
17,GAAGAGUCCAACAACCAAATT against Mrpl53,inactive: -0.303
18,GGAUCUCCGCUCAUCAGAUTT against Slc14a2,inactive: -1.05
19,GGAGAAAUGCCAUUGCGUCTT against Wnt3,inactive: 0.169
